Data on one substance can be found in PMC10512269.

Amino acid sequences for entries named in this document (tags omitted).
UniProt Q4WVQ7: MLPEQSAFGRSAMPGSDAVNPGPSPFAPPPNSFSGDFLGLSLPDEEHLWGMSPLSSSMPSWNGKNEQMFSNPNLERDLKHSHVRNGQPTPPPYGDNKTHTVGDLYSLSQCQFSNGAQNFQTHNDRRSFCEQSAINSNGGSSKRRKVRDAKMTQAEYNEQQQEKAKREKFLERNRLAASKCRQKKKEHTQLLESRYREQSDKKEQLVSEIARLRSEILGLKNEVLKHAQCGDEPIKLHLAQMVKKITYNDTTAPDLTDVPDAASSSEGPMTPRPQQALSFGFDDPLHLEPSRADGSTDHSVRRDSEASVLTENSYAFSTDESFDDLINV

These are yes or no findings as the source states them, for the method shown. Binding seen in cells or lysates may run through a third protein. Some results given as binding are weak or reduced against the parent protein; the word gives no strength. Tags and fused reporters may be left off the sequences shown.

The target of the experiment is T1, AtfA:GFP (Aspergillus fumigatus) (UniProt Q4WY05).
T1 sequence: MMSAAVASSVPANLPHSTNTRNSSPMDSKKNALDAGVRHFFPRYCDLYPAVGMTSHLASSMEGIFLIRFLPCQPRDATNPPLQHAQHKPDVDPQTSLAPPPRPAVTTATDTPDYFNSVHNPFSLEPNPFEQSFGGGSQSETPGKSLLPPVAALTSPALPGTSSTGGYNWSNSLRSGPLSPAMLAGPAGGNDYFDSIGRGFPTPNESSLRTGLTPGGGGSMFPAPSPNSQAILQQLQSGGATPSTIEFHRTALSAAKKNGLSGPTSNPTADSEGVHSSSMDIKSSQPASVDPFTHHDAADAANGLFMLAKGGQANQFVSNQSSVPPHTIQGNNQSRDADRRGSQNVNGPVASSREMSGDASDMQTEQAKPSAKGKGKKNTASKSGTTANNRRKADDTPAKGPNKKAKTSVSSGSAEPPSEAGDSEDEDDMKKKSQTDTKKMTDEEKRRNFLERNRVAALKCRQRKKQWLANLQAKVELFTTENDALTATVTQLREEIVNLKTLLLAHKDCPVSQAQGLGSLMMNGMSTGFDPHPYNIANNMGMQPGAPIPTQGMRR
Kind of experiment: co-IP; GFP-Trap resin with protein extracts of A. fumigatus mycelia (grown 16 h in liquid YG; untreated, 1.2 M sorbitol 10 min, or Congo Red 300 ug/ml 10 min); 4 h at 4°C, washed three times in B250 buffer; Western blot with anti-GFP and anti-HA.

Turning to AtfB:3xHA (from UniProt Q4WVQ7 1-328), the binding result is recorded as “binds”.
